Binding data for two substances are collected here from article PMC6207785.

By UniProt entry, the sequences of proteins in these tests, tags left out. Where a name states a change or a piece, a line headed by the entry shows the natural chain unless it says otherwise. Chains listed by the source or under a name are the forms on record and can include a tag or linker.
ROR-γt (endogenous, mouse colonic lamina propria lymphocytes) (mouse (endogenous in cLPLs of C57BL/6 mice)) (P51450, form named): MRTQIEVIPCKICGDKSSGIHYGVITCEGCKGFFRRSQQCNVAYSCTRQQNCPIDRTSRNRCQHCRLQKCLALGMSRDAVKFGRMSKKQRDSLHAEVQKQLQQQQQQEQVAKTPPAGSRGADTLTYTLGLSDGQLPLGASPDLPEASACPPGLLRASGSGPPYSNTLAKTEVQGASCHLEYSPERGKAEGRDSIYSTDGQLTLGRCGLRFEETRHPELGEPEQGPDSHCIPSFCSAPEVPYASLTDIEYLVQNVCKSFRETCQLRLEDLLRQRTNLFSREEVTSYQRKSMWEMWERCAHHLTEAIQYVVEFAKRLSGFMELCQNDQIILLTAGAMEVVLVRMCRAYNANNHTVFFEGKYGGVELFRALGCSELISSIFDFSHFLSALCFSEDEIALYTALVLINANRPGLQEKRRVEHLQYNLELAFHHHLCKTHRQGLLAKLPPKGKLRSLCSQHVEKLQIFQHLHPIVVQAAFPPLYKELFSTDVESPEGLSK
UniProt P70288: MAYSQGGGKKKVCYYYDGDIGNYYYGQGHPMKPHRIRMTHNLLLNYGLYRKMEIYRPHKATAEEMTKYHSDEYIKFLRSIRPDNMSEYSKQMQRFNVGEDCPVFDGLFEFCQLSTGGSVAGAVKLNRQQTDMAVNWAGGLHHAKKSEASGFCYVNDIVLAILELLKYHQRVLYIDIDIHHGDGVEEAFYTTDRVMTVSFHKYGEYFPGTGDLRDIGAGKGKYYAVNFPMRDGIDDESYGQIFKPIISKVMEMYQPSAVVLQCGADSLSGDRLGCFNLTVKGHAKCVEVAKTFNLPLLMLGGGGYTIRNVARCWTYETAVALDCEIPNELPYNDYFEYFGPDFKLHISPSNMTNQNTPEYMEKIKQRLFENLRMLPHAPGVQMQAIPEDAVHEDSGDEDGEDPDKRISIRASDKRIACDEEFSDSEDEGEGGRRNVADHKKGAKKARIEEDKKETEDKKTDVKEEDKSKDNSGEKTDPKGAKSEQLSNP
UniProt P63280: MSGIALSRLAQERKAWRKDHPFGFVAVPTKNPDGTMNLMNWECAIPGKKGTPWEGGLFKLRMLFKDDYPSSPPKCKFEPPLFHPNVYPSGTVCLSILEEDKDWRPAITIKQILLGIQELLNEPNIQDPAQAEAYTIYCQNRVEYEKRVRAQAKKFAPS

This experiment addresses ROR-γt (endogenous, mouse colonic lamina propria lymphocytes) (mouse (endogenous in cLPLs of C57BL/6 mice)) (UniProt P51450). As to the kind of experiment: affinity purification with mass spectrometry; anti-ROR-γt or control IgG immunoprecipitation from lysate of cLPLs of WT mice; SDS-PAGE, in-gel trypsin digestion, LC-MS/MS (Orbitrap).

No constants are given. Whether binding was seen depends on the method and setting. Binding seen in cells or lysates may run through a third protein. Here binding means that the protein was enriched with, or labelled near, the bait; the list need not be complete.

Take “HDAC2 (endogenous, mouse cells) (from UniProt P70288 1-488) (enzyme)”: the binding result is recorded as “binds”. On to “Ubc9 (endogenous, mouse colonic lamina propria lymphocytes) (from UniProt P63280 1-158) (enzyme)”, for which the binding entry is on record as “binds”.
